Laboratory results reported in publication doi:10.1101/2023.01.15.524091.

Amino acid sequences for entries named in this document (tags omitted). A change or cut given only in a name is not applied to a line headed by its entry.
UniProt P67775: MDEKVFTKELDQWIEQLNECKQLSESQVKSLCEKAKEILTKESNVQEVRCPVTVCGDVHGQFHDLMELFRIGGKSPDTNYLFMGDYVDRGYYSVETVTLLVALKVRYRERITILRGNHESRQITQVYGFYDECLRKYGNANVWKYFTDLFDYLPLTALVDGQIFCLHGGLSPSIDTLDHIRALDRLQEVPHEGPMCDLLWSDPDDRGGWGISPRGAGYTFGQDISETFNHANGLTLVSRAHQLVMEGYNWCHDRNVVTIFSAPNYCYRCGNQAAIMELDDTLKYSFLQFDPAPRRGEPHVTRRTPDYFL
UniProt Q01105: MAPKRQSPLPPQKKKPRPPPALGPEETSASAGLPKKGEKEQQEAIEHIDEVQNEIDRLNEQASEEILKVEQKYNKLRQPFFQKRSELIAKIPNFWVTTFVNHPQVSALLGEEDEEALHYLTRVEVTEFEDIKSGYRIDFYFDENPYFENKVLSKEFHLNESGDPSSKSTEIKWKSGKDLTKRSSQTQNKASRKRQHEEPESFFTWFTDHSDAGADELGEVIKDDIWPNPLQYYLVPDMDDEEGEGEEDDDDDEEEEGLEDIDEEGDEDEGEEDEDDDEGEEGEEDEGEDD

Target: wild-type Pp2a-c (stably transfected in HEK293T) (UniProt P67775)
Experiment: co-IP

**Q.** How did the binding turn out when “SET, endogenous in HEK293T cells (from UniProt Q01105 1-290)” was run?
**A.** Its binding is “binds”.

Results are given in words; binding and its absence hold for the method and conditions named. Binding seen in cells or lysates may run through a third protein. Binding calls can cover weak binding; strength is not graded here.
